Source: patent US20260263599A1 (AUTOLUS, published 2026)
Results are given in words; binding and its absence hold for the method and conditions named. Some entries that bind do so weakly or less than the wild type.

By UniProt entry, the sequences of proteins in these tests, tags left out. Residues count along the entry.
UniProt P01850, residues 1-144: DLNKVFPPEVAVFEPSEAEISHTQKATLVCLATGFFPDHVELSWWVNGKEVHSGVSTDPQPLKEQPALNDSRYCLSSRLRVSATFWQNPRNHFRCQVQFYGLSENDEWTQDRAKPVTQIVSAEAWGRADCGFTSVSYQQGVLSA

B1: chimeric antibody having murine JOVI-1 VH and VL domains (antibody, V domains shown)
VH: EVRLQQSGPDLIKPGASVKMSCKASGYTFTGYVMHWVKQRPGQGLEWIGFINPYNDDIQSNERFRGKATLTSDKSSTTAYMELSSLTSEDSAVYYCARGAGYNFDGAYRFFDFWGQGTTLTVSS
VL: DVVMTQSPLSLPVSLGDQASISCRSSQRLVHSNGNTYLHWYLQKPGQSPKLLIYRVSNRFPGVPDRFSGSGSGTDFTLKISRVEAEDLGIYFCSQSTHVPYTFGGGTKLEIKR
B2: Jovi Hum 8 (antibody, V domains shown)
VH: QVQLVQSGAEVKKPGASVKVSCKASGYTFTGYVMHWVRQAPGQGLEWMGFINPYNDDIQSNERFRGRVTMTRDTSISTAYMELSRLRSDDTAVYYCARGAGYNFDGAYRFFDFWGQGTMVTVSS
VL: DIVMTQSPLSLPVTPGEPASISCRSSQRLVHSNGNTYLHWYLQKPGQSPRLLIYRVSNRFPGVPDRFSGSGSGTDFTLKISRVEAEDVGVYYCSQSTHVPYTFGQGTKLEIK
notes: also called H-AF 1; humanised antibody with H-AF062256 VH and 3aaz VL
B3: Jovi Hum 16 (antibody, V domains shown)
VH: QVQLVQSGAEVKKPGASVKVSCKASGYTFTGYVMHWVRQAPGQGLEWMGFINPYNDDIQSNERFRGRVTMTRDKSISTAYMELSRLRSDDTAVYYCARGAGYNFDGAYRFFDFWGQGTMVTVSS
VL: DIVMTQSPLSLPVTPGEPASISCRSSQRLVHSNGNTYLHWYLQKPGQSPRLLIYRVSNRFPGVPDRFSGSGSGTDFTLKISRVEAEDVGVYYCSQSTHVPYTFGQGTKLEIK
notes: also called H-AF 2
B4: Jovi Hum 17 (antibody, V domains shown)
VH: QVQLVQSGAEVKKPGASVKVSCKASGYTFTGYVMHWVRQAPGQGLEWMGFINPYNDDIQSNERFRGRVTMTSDTSISTAYMELSRLRSDDTAVYYCARGAGYNFDGAYRFFDFWGQGTMVTVSS
VL: DIVMTQSPLSLPVTPGEPASISCRSSQRLVHSNGNTYLHWYLQKPGQSPRLLIYRVSNRFPGVPDRFSGSGSGTDFTLKISRVEAEDVGVYYCSQSTHVPYTFGQGTKLEIK
notes: also called H-AF 3
B5: Jovi Hum 18 (antibody, V domains shown)
VH: QVQLVQSGAEVKKPGASVKVSCKASGYTFTGYVMHWVRQAPGQGLEWMGFINPYNDDIQSNERFRGRVTMTSDKSISTAYMELSRLRSDDTAVYYCARGAGYNFDGAYRFFDFWGQGTMVTVSS
VL: DIVMTQSPLSLPVTPGEPASISCRSSQRLVHSNGNTYLHWYLQKPGQSPRLLIYRVSNRFPGVPDRFSGSGSGTDFTLKISRVEAEDVGVYYCSQSTHVPYTFGQGTKLEIK
notes: also called H-AF 4
B6: Jovi Hum 19 (antibody, V domains shown)
VH: QVQLVQSGAEVKKPGASVKVSCKASGYTFTGYVMHWVRQAPGQGLEWIGFINPYNDDIQSNERFRGRVTMTRDTSISTAYMELSRLRSDDTAVYYCARGAGYNFDGAYRFFDFWGQGTMVTVSS
VL: DIVMTQSPLSLPVTPGEPASISCRSSQRLVHSNGNTYLHWYLQKPGQSPRLLIYRVSNRFPGVPDRFSGSGSGTDFTLKISRVEAEDVGVYYCSQSTHVPYTFGQGTKLEIK
notes: also called H-AF 5
B7: Jovi Hum 20 (antibody, V domains shown)
VH: QVQLVQSGAEVKKPGASVKVSCKASGYTFTGYVMHWVRQAPGQGLEWIGFINPYNDDIQSNERFRGRVTMTRDKSISTAYMELSRLRSDDTAVYYCARGAGYNFDGAYRFFDFWGQGTMVTVSS
VL: DIVMTQSPLSLPVTPGEPASISCRSSQRLVHSNGNTYLHWYLQKPGQSPRLLIYRVSNRFPGVPDRFSGSGSGTDFTLKISRVEAEDVGVYYCSQSTHVPYTFGQGTKLEIK
notes: also called H-AF 6
B8: Jovi Hum 21 (antibody, V domains shown)
VH: QVQLVQSGAEVKKPGASVKVSCKASGYTFTGYVMHWVRQAPGQGLEWIGFINPYNDDIQSNERFRGRVTMTSDTSISTAYMELSRLRSDDTAVYYCARGAGYNFDGAYRFFDFWGQGTMVTVSS
VL: DIVMTQSPLSLPVTPGEPASISCRSSQRLVHSNGNTYLHWYLQKPGQSPRLLIYRVSNRFPGVPDRFSGSGSGTDFTLKISRVEAEDVGVYYCSQSTHVPYTFGQGTKLEIK
notes: also called H-AF 7
B9: Jovi Hum 26 (antibody, V domains shown)
VH: QVQLVQSGAEVKKPGASVKMSCKASGYTFTGYVMHWVRQAPGQGLEWMGFINPYNDDIQSNERFRGRVTMTSDKSISTAYMELSRLRSDDTAVYYCARGAGYNFDGAYRFFDFWGQGTMVTVSS
VL: DIVMTQSPLSLPVTPGEPASISCRSSQRLVHSNGNTYLHWYLQKPGQSPRLLIYRVSNRFPGVPDRFSGSGSGTDFTLKISRVEAEDVGVYYCSQSTHVPYTFGQGTKLEIK
notes: also called H-AF 12
B10: Jovi Hum 27 (antibody, V domains shown)
VH: QVQLVQSGAEVKKPGASVKMSCKASGYTFTGYVMHWVRQAPGQGLEWIGFINPYNDDIQSNERFRGRVTMTRDTSISTAYMELSRLRSDDTAVYYCARGAGYNFDGAYRFFDFWGQGTMVTVSS
VL: DIVMTQSPLSLPVTPGEPASISCRSSQRLVHSNGNTYLHWYLQKPGQSPRLLIYRVSNRFPGVPDRFSGSGSGTDFTLKISRVEAEDVGVYYCSQSTHVPYTFGQGTKLEIK
notes: also called H-AF 13
B11: chimeric antibody with humanised VH (H-AF062256 framework) and murine JOVI-1 VL (antibody, V domains shown)
VH: QVQLVQSGAEVKKPGASVKVSCKASGYTFTGYVMHWVRQAPGQGLEWMGFINPYNDDIQSNERFRGRVTMTRDTSISTAYMELSRLRSDDTAVYYCARGAGYNFDGAYRFFDFWGQGTMVTVSS
VL: DVVMTQSPLSLPVSLGDQASISCRSSQRLVHSNGNTYLHWYLQKPGQSPKLLIYRVSNRFPGVPDRFSGSGSGTDFTLKISRVEAEDLGIYFCSQSTHVPYTFGGGTKLEIKR
B12: chimeric antibody with humanised VH (H-EF177999 framework) and murine JOVI-1 VL (antibody, V domains shown)
VH: EVQLVESGAEVKKPGASVKVSCKASGYTFTGYVMHWVRQAPGQGLEWMGFINPYNDDIQSNERFRGRVTMTRDTSTSTVYMELSSLRSEDTAVYYCARGAGYNFDGAYRFFDFWGQGTLVTVSS
VL: DVVMTQSPLSLPVSLGDQASISCRSSQRLVHSNGNTYLHWYLQKPGQSPKLLIYRVSNRFPGVPDRFSGSGSGTDFTLKISRVEAEDLGIYFCSQSTHVPYTFGGGTKLEIKR
B13: chimeric antibody with humanised VH (H-KF688165 framework) and murine JOVI-1 VL (antibody, V domains shown)
VH: QVQLVQSGAEVKKPGASVKVSCKASEYSFTGYVMHWVRQAPGQGLEWMGFINPYNDDIQSNERFRGRVTMTRDTSISTAYMEVSSLTSDDAAIYYCARGAGYNFDGAYRFFDFWGQGTLVTVSS
VL: DVVMTQSPLSLPVSLGDQASISCRSSQRLVHSNGNTYLHWYLQKPGQSPKLLIYRVSNRFPGVPDRFSGSGSGTDFTLKISRVEAEDLGIYFCSQSTHVPYTFGGGTKLEIKR
B14: chimeric antibody with murine JOVI-1 VH and humanised VL (3aaz framework) (antibody, V domains shown)
VH: EVRLQQSGPDLIKPGASVKMSCKASGYTFTGYVMHWVKQRPGQGLEWIGFINPYNDDIQSNERFRGKATLTSDKSSTTAYMELSSLTSEDSAVYYCARGAGYNFDGAYRFFDFWGQGTTLTVSS
VL: DIVMTQSPLSLPVTPGEPASISCRSSQRLVHSNGNTYLHWYLQKPGQSPRLLIYRVSNRFPGVPDRFSGSGSGTDFTLKISRVEAEDVGVYYCSQSTHVPYTFGQGTKLEIK
B15: humanised antibody with humanised VH (H-EF177999 framework) and humanised VL (3aaz framework) (antibody, V domains shown)
VH: EVQLVESGAEVKKPGASVKVSCKASGYTFTGYVMHWVRQAPGQGLEWMGFINPYNDDIQSNERFRGRVTMTRDTSTSTVYMELSSLRSEDTAVYYCARGAGYNFDGAYRFFDFWGQGTLVTVSS
VL: DIVMTQSPLSLPVTPGEPASISCRSSQRLVHSNGNTYLHWYLQKPGQSPRLLIYRVSNRFPGVPDRFSGSGSGTDFTLKISRVEAEDVGVYYCSQSTHVPYTFGQGTKLEIK
B16: humanised antibody with humanised VH (H-KF688165 framework) and humanised VL (3aaz framework) (antibody, V domains shown)
VH: QVQLVQSGAEVKKPGASVKVSCKASEYSFTGYVMHWVRQAPGQGLEWMGFINPYNDDIQSNERFRGRVTMTRDTSISTAYMEVSSLTSDDAAIYYCARGAGYNFDGAYRFFDFWGQGTLVTVSS
VL: DIVMTQSPLSLPVTPGEPASISCRSSQRLVHSNGNTYLHWYLQKPGQSPRLLIYRVSNRFPGVPDRFSGSGSGTDFTLKISRVEAEDVGVYYCSQSTHVPYTFGQGTKLEIK

Target: T Cell Receptor Beta Constant 1 (TRBC1) (human) (UniProt P01850)
Test: ELISA

binding, binds:
B1
B2
B3
B4
B5
B6
B7
B8
B9
B10
B11
B12
B13
B14
B15
B16
